PubChem BioAssay AID1259425 | University of Nebraska Medical Center, 2018
In all, the deposit lists about 14,000 reagents; shown is a random part of them. Reagent sequences are not shown. The record does not give: the time to read-out.

Assay: 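Compare each knockdown with KSR1 silencing using changes in marker transcripts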 (primary screen)
System: HCT116 human colon cancer cells
Reagent: siRNA pool against human genes, 50 nM siRNA
Measured: 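mRNA of six signature genes measured together by branched-DNA assay after 50 nM siRNA pool, blank removed, divided by geometric mean of two housekeeping genes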
Scale: BNIP3L mRNA: higher = more BNIP3L transcript after knockdown; NDRG1 mRNA: higher = more NDRG1 transcript after knockdown; BNIP3 mRNA: higher = more BNIP3 transcript after knockdown; ALDOC mRNA: higher = more ALDOC transcript after knockdown; ACSL5 mRNA: higher = more ACSL5 transcript after knockdown

| gene knocked down | BNIP3L mRNA, set 1 | NDRG1 mRNA, set 1 | BNIP3 mRNA, set 1 | ALDOC mRNA, set 1 | ACSL5 mRNA, set 1 |
| --- | --- | --- | --- | --- | --- |
| PAPPA2 (pappalysin 2) | 0.111 | 0.0995 | 0.291 | 0.0219 | 0.163 |
| NAA40 (N-alpha-acetyltransferase 40, NatD catalytic subunit) | 0.0697 | 0.198 | 0.229 | 0.0418 | 0.178 |
| KLHDC2 (kelch domain containing 2) | 0.113 | 0.136 | 0.209 | 0.00941 | 0.232 |
| PAPSS2 (3'-phosphoadenosine 5'-phosphosulfate synthase 2) | 0.0705 | 0.227 | 0.329 | 0.00583 | 0.18 |
| MRPL36 (mitochondrial ribosomal protein L36) | 0.0929 | 0.0871 | 0.285 | 0.0362 | 0.138 |
| PSG11 (pregnancy specific beta-1-glycoprotein 11) | 0.154 | 0.201 | 0.24 | 0.0363 | 0.23 |
| ZNF267 (zinc finger protein 267) | 0.121 | 0.379 | 0.397 | 0.0278 | 0.238 |
| ALAD (aminolevulinate dehydratase) | 0.175 | 0.916 | 0.505 | 0.0239 | 0.24 |
| C10orf88 (chromosome 10 open reading frame 88) | 0.141 | 0.244 | 0.337 | 0.0485 | 0.203 |
| PMEL (premelanosome protein) | 0.148 | 0.709 | 0.474 | 0.0362 | 0.266 |
| CCR3 (C-C motif chemokine receptor 3) | 0.102 | 0.152 | 0.359 | 0.0396 | 0.156 |
| P2RY13 (purinergic receptor P2Y13) | 0.0952 | 0.177 | 0.303 | 0.00872 | 0.175 |
| CADM1 (cell adhesion molecule 1) | 0.0828 | 0.153 | 0.285 | 0.012 | 0.134 |
| ASF1B (anti-silencing function 1B histone chaperone) | 0.0608 | 0.177 | 0.315 | 0.011 | 0.203 |
| NIFK (nucleolar protein interacting with the FHA domain of MKI67) | 0.187 | 0.475 | 0.315 | 0.0152 | 0.373 |
| TMSB4X (thymosin beta 4 X-linked) | 0.171 | 0.469 | 0.588 | 0.0545 | 0.259 |
| KRT73 (keratin 73) | 0.115 | 0.119 | 0.239 | 0.0213 | 0.0428 |
| PIAS1 (protein inhibitor of activated STAT 1) | 0.113 | 0.169 | 0.235 | 0.0329 | 0.248 |
| OR1F2P (olfactory receptor family 1 subfamily F member 2 pseudogene) | 0.149 | 0.388 | 0.516 | 0.0499 | 0.324 |
| DGCR8 (DGCR8 microprocessor complex subunit) | 0.132 | 0.224 | 0.372 | 0.052 | 0.197 |
| CCNT2 (cyclin T2) | 0.0439 | 0.0357 | 0.11 | 0.0305 | 0.128 |
| WT1-AS (WT1 antisense RNA) | 0.2 | 0.248 | 0.448 | 0.0428 | 0.185 |
| PAPSS1 (3'-phosphoadenosine 5'-phosphosulfate synthase 1) | 0.0893 | 0.408 | 0.306 | 0.0167 | 0.169 |

Limited to “ACSL5 mRNA, set 1” (8 entries from above):
NAA40 (N-alpha-acetyltransferase 40, NatD catalytic subunit) = 0.178
KLHDC2 (kelch domain containing 2) = 0.232
PAPSS2 (3'-phosphoadenosine 5'-phosphosulfate synthase 2) = 0.18
MRPL36 (mitochondrial ribosomal protein L36) = 0.138
PSG11 (pregnancy specific beta-1-glycoprotein 11) = 0.23
ZNF267 (zinc finger protein 267) = 0.238
ALAD (aminolevulinate dehydratase) = 0.24
C10orf88 (chromosome 10 open reading frame 88) = 0.203

More reagents:
| gene knocked down | BNIP3L mRNA, set 1 | NDRG1 mRNA, set 1 | BNIP3 mRNA, set 1 | ALDOC mRNA, set 1 | ACSL5 mRNA, set 1 |
| --- | --- | --- | --- | --- | --- |
| SOX11 (SRY-box transcription factor 11) | 0.201 | 0.874 | 0.436 | 0.0685 | 0.229 |
| TRAPPC9 (trafficking protein particle complex subunit 9) | 0.165 | 0.244 | 0.345 | 0.0916 | 0.339 |
| SLC26A4 | 0.124 | 0.129 | 0.299 | 0.0241 | 0.134 |
| SETD4 (SET domain containing 4) | 0.341 | 0.165 | 0.299 | 0.065 | 0.223 |
| FCRL1 (Fc receptor like 1) | 0.0905 | 0.122 | 0.303 | 0.0131 | 0.147 |
| HSPB8 (heat shock protein family B (small) member 8) | 0.107 | 0.0561 | 0.368 | 0.00754 | 0.28 |
| DDT (D-dopachrome tautomerase) | 0.0566 | 0.228 | 0.234 | 0.00882 | 0.279 |
| FAM89B (family with sequence similarity 89 member B) | 0.141 | 0.178 | 0.417 | 0.0555 | 0.133 |
| THBD (thrombomodulin) | 0.105 | 0.192 | 0.151 | 0.0247 | 0.224 |
| BCAS4 (breast carcinoma amplified sequence 4) | 0.0839 | 0.159 | 0.305 | 0.0346 | 0.1 |
| SAMSN1 (SAM domain, SH3 domain and nuclear localization signals 1) | 0.0706 | 0.196 | 0.173 | 0.0323 | 0.159 |
| ERCC5 (ERCC excision repair 5, endonuclease) | 0.0734 | 0.18 | 0.232 | 0.0204 | 0.123 |
| DSP (desmoplakin) | 0.0854 | 0.602 | 0.221 | 0.0145 | 0.367 |
| FAM117B (family with sequence similarity 117 member B) | 0.568 | 2.98 | 1.4 | 0.112 | 0.273 |
| PPEF1 (protein phosphatase with EF-hand domain 1) | 0.0919 | 0.185 | 0.234 | 0.0257 | 0.155 |
| CHTOP (chromatin target of PRMT1) | 0.091 | 0.232 | 0.383 | 0.0456 | 0.158 |
| SP6 (Sp6 transcription factor) | 0.145 | 0.685 | 0.413 | 0.0643 | 0.356 |
| ATP6V0B (ATPase H+ transporting V0 subunit b) | 0.179 | 0.754 | 1.31 | 0.142 | 0.175 |
| MELTF (melanotransferrin) | 0.0335 | 0.263 | 0.276 | 0.0207 | 0.142 |
| PMFBP1 (polyamine modulated factor 1 binding protein 1) | 0.113 | 0.236 | 0.249 | 0.124 | 0.379 |
| DLGAP2 (DLG associated protein 2) | 0.093 | 0.0942 | 0.332 | 0.0399 | 0.0769 |
| LILRA1 (leukocyte immunoglobulin like receptor A1) | 0.123 | 0.868 | 0.483 | 0.00649 | 0.357 |
| AP2S1 (adaptor related protein complex 2 subunit sigma 1) | 0.137 | 0.114 | 0.298 | 0.0761 | 0.0532 |
| COL6A3 (collagen type VI alpha 3 chain) | 0.0769 | 0.531 | 0.38 | 0.0448 | 0.194 |
| GRIN1 (glutamate ionotropic receptor NMDA type subunit 1) | 0.115 | 0.0917 | 0.174 | 0.0506 | 0.184 |
| DNAH11 (dynein axonemal heavy chain 11) | 0.078 | 0.147 | 0.286 | 0.00773 | 0.234 |
| PTPRU (protein tyrosine phosphatase receptor type U) | 0.0585 | 0.2 | 0.262 | 0.00783 | 0.149 |
